Results deposited as PubChem BioAssay AID504764 (Drosophila RNAi Screening Center, 2011)

Assay: 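Knock-downs that raise or lower a Notch target reporter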 (primary screen)
Cell system: Drosophila Kc167 cells
Knock-down reagent: long dsRNA against Drosophila genes
Time to read-out: about 5 days (4 days dsRNA, then 24 h after transfection)
Conditions: transfection of constitutively active membrane-tethered Notch lacking the extracellular domain, read 24 h later
Measurement: 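Light from a Notch-responsive E(spl)m3 luciferase reporter under active Notch, with control-promoter and no-Notch reporter wells to normalise; raw counts from paired wells a and b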
Scale: induced reporter light, run 1, well a and induced reporter light, run 1, well b: higher = more light from the Notch target reporter with active Notch; control promoter light, run 1, well a and control promoter light, run 1, well b: higher = more light from the viral control promoter (cell number, transfection, viability); uninduced reporter light, run 1, well a: higher = more light from the Notch target reporter without active Notch
Rule for the call: 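Hit if the duplicate-averaged log2 ratio of induced to control-promoter light gives a plate-wise z beyond ±2, or induced to uninduced beyond ±1.8; weak-control or discordant-duplicate wells dropped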
Calls: active = modifier hit (raised or lowered Notch signal); inactive = not a hit
The screen tested about 22,000 reagents; shown is a random part of those that have a named target and a result. Over the whole deposit, 403 (1.9%) were called active. 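Unnormalised raw counts per well; ratio z-scores behind the hit calls and whether each hit raises or lowers signal are not deposited.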 A plus sign joins genes that one reagent is predicted to hit. Not stated in the record: the amount of reagent.

| target gene | amplicon | induced reporter light, run 1, well a | induced reporter light, run 1, well b | control promoter light, run 1, well a | control promoter light, run 1, well b | uninduced reporter light, run 1, well a | Outcome |
| --- | --- | --- | --- | --- | --- | --- | --- |
| CG1143 | DRSC08188 | 67915 | 77095 | 1.21e5 | 1.02e5 | 5675 | inactive |
| CG10283 | DRSC02034 | 2.92e5 | 2.64e5 | 2.44e5 | 2.44e5 | 18145 | inactive |
| CG7196 (retired record) | DRSC01000 | 1.42e5 | 1.75e5 | 1.77e5 | 1.78e5 | 10395 | inactive |
| CG7196 (retired record) | DRSC03023 | 1.24e5 | 1.47e5 | 1.15e5 | 1.51e5 | 17855 | inactive |
| Pof | DRSC04405 | 2.29e5 | 1.84e5 | 1.74e5 | 1.72e5 | 17075 | inactive |
| Nop60B | DRSC04627 | 1.57e5 | 2.05e5 | 1.59e5 | 1.47e5 | 11725 | inactive |
| RpL36 | DRSC18708 | 6792 | 7160 | 9930 | 10185 | 425 | inactive |
| CG11151 | DRSC19387 | 48385 | 59015 | 58090 | 69780 | 11700 | inactive |
| Orc6 | DRSC07497 | 1.73e5 | 1.64e5 | 2.09e5 | 1.97e5 | 16200 | inactive |
| CG8389 | DRSC07158 | 1.05e5 | 1.01e5 | 1.87e5 | 2.20e5 | 10085 | inactive |
| CG8389 | DRSC22855 | – | – | – | – | – | inactive |
| CG40245 (retired record) | DRSC21012 | 2.52e5 | 2.41e5 | 3.61e5 | 3.98e5 | 16860 | inactive |
| brat | DRSC03497 | 2.37e5 | 2.18e5 | 1.63e5 | 1.79e5 | 16595 | inactive |
| tut | DRSC08909 | 2.02e5 | 1.92e5 | 3.05e5 | 2.39e5 | 13160 | inactive |
| CG13689 | DRSC00358 | 1.02e5 | 1.07e5 | 1.11e5 | 50375 | 8070 | inactive |
| CR32011 + CR32010 + PlexB + 1 more | DRSC21664 | – | – | – | – | – | inactive |
| CG5011 | DRSC00039 | 1.08e5 | 91725 | 1.61e5 | 1.71e5 | 8275 | inactive |
| CG5011 | DRSC00674 | 83610 | 99055 | 87295 | 87415 | 6765 | inactive |
| zpg | DRSC09702 | 2.94e5 | 2.50e5 | 2.90e5 | 2.26e5 | 11095 | inactive |
| CG2750 | DRSC19867 | 1.39e5 | 1.45e5 | 3.03e5 | 2.69e5 | 10830 | inactive |
